Experimental data: the supplement of paper PMC12067093, “Discovery and optimisation of a covalent ligand for TRIM25 and its application to targeted protein ubiquitination” (Chemical Science, 2025)
The other results are listed elsewhere or left out.

Compound: Cc1cc(ccc1-c1ccccc1)C(=O)N1CCCN(CC1)C(=O)CCl [compound 10]
Assay: probe-labelled cysteine peptide fold change vs DMSO (competition) (log2 fold change); higher = less target engagement (more negative = stronger competition)
Conditions: THP-1, incubation time: 4 h
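Also: competitive profiling in live THP-1 cells: cysteine peptides tagged with an iodoacetamide desthiobiotin (IA-DTB) probe, intensity after compound treatment relative to DMSO-treated cells.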

Target | probe-labelled cysteine peptide fold change (10 µM) | probe-labelled cysteine peptide fold change (50 µM)
CORO1A_P31146_345_RCEPIAMTVPR (UniProt P31146) | -0.00998 | -0.138
CSTF1_Q05048_415_CIVHSPTNPGFMTCSDDFR (UniProt Q05048) | -0.0745 | 0.192
CSDE1_O75534_506_QRPGQQVATCVR (UniProt O75534) | -0.0375 | -0.267
CROT_Q9UKG9_584_SCPETDAEK (UniProt Q9UKG9) | -0.0249 | 0.181
CSNK2B_P67870_140_CMDVYTPK (UniProt P67870) | 0.083 | -0.242
CTDP1_Q9Y5B0_201_LVLMVDLDQTLIHTTEQHCQQMSNK (UniProt Q9Y5B0) | -0.3 | -0.6
CRYBG1_Q9Y4K1_581+609_EVQLPTCHSNEPEVVSVASCAPPQEEVLGNEHSHCTAELAAK (UniProt Q9Y4K1) | -0.034 | -0.822
CPSF2_Q9P2I0_763_IGLEGCLCQDFYR (UniProt Q9P2I0) | 0.182 | 0.0962
CPNE1_Q99829_4+14_AHCVTLVQLSISCDHLIDK (UniProt Q99829) | -0.148 | -0.173
CORO7_P57737_325_QALAVMSCEVLR (UniProt P57737) | -0.0212 | -0.181
CSDE1_O75534_186_CQGVVCAMK (UniProt O75534) | -0.157 | -0.153
CPT2_P23786_639_EFLQCVEK (UniProt P23786) | 0.159 | 0.0476
CSE1L_P55060_842_KICAVGITK (UniProt P55060) | -0.141 | -0.665
CPNE3_O75131_249_SSPVEFECINEK (UniProt O75131) | -0.104 | -0.112
CSRP1_P21291_167_GLESTTLADKDGEIYCK (UniProt P21291) | -0.0814 | -1.06
CORO7_P57737_505_GLNLTTPGESDGFCANK (UniProt P57737) | -0.023 | 0.0129
CRBN_Q96SW2_188_VQILPECVLPSTMSAVQLESLNK (UniProt Q96SW2) | -0.183 | -0.156
CTDNEP1_O95476_161_QHCTLELGSYIK (UniProt O95476) | 0.117 | 0.158
CTNNA2_P26232_792_IALYCHQLNICSK (UniProt P26232) | -0.0537 | -0.0193
CTAGE5_O15320_579_GPGNPLDHQITNERGESSCDR (UniProt Q96PC5+O15320) | 0.125 | -0.191
COX5B_P10606_91+93_IVGCICEEDNTSVVWFWLHK (UniProt P10606) | 0.124 | -0.102
CRYBG3_Q68DQ2_2762_SLKPIDYVFEEPSISLFALEHCEGR (UniProt Q68DQ2) | 0.0989 | -0.101
CRIP1_P50238_28_DWHRPCLK (UniProt P50238) | 0.251 | -0.232
CTDP1_Q9Y5B0_700_VLQAQECGHLHVVNPDWLWSCLER (UniProt Q9Y5B0) | -0.181 | -0.516
CSNK1D_P48730_241_KMSTPIEVLCK (UniProt P48730) | -0.189 | -0.828
CRIP2_P52943_150_DWHRPCLR (UniProt P52943) | 0.923 | 1.04
CSTF2T_Q9H0L4_150_LCVQNSHQEAR (UniProt Q9H0L4) | 0.0738 | 0.0145

Target | probe-labelled cysteine peptide fold change (10 µM) | probe-labelled cysteine peptide fold change (50 µM)
CPSF6_Q16630_476_VLISSLQDCLHGIESK (UniProt Q16630) | 0.221 | -0.0558
CTPS1_P17812_218_CSNPLDTSVK (UniProt P17812) | 0.165 | -0.198
CSDE1_O75534_365_CVDRDVR (UniProt O75534) | 0.227 | 0.44
CPSF6_Q16630_159_RELHGQNPVVTPCNK (UniProt Q16630) | -0.0913 | -0.231
CRLF3_Q8IUI8_336_DSIGVCAEK (UniProt Q8IUI8) | -0.131 | -0.0686
CTCF_P49711_439+442_FHCPHCDTVIAR (UniProt P49711) | 0.212 | -0.429
CTNND1_O60716_533_HIEWESVLTNTAGCLR (UniProt O60716) | -0.0774 | -0.0601
CPVL_Q9H3G5_320_CTEPEDQLYYVK (UniProt Q9H3G5) | -0.128 | -0.131
CTBP2_P56545_60_DLATVAFCDAQSTQEIHEK (UniProt P56545) | -0.0727 | 0.155
CPPED1_Q9BRF8_88_FFVLCGDLIHAMPGKPWR (UniProt Q9BRF8) | -0.0653 | -0.191
CRYZ_Q08257_145_ALIHSACVK (UniProt Q08257) | 0.0366 | 0.247
CTNNA1_P35221_228_NVPILYTASQACLQHPDVAAYK (UniProt P35221) | 0.249 | 0.236
CPS1_P31327_1256_GNDVLVIECNLR (UniProt P31327) | -0.11 | 0.0627
CRYBG3_Q68DQ2_439_EELVEPQGPAISDFSCSK (UniProt Q68DQ2) | -0.427 | -0.189
CPSF3_Q9UKF6_345_ELFESWCTDK (UniProt Q9UKF6) | -0.0082 | 0.319
CRELD2_Q6UXH1_294_EHGQCADVDECSLAEK (UniProt Q6UXH1) | -0.231 | -0.125
CPSF3_Q9UKF6_655_TVECEEGSEDDESLREMVELAAQR (UniProt Q9UKF6) | 0.0335 | 0.103
CSDE1_O75534_680_ATVECVK (UniProt O75534) | 0.0724 | -0.0953
CPSF2_Q9P2I0_20_LTTLSGVQEESALCYLLQVDEFR (UniProt Q9P2I0) | 0.265 | 0.409
CRELD2_Q6UXH1_166_QGDGSCR (UniProt Q6UXH1) | -0.195 | -0.265
CTNNA2_P26232_322_LESIISGAALMADSSCTR (UniProt P26232) | 0.11 | 0.278
CPSF1_Q10570_20_QAHPPTGLEFSMYCNFFNNSER (UniProt Q10570) | 0.0231 | 0.306
CRYBG3_Q68DQ2_1502_SSLSDSLVCISEK (UniProt Q68DQ2) | -0.462 | -0.368
CTNNA1_P35221_438_LIEVANLACSISNNEEGVK (UniProt P35221) | 0.411 | 0.513
CTCF_P49711_299_CHLCGR (UniProt P49711) | 0.168 | 0.282
CTCF_P49711_472_YCDAVFHER (UniProt P49711) | -0.0978 | -0.0657
CRELD2_Q6UXH1_288+294_EHGQCADVDECSLAEK (UniProt Q6UXH1) | -0.429 | -0.479

Target | probe-labelled cysteine peptide fold change (10 µM) | probe-labelled cysteine peptide fold change (50 µM)
CSDE1_O75534_645_GDCLQK (UniProt O75534) | 0.00859 | -0.107
CTNNBL1_Q8WYA6_408_EHEEHVCSILASLLR (UniProt Q8WYA6) | -0.0454 | -0.206
CPT1A_P50416_742_FSCPETDSHR (UniProt P50416) | -0.133 | -0.0423
COX6B1_P14854_30_NCWQNYLDFHR (UniProt P14854) | -0.154 | -0.0245
CRELD1_Q96HD1_281_ACLGCMGAGPGR (UniProt Q96HD1) | -0.0368 | -0.0736
CTPS2_Q9NRF8_299_ICSIALVGK (UniProt Q9NRF8) | -0.0254 | 0.193
CSNK2B_P67870_23_GNEFFCEVDEDYIQDK (UniProt P67870) | -0.0762 | 0.0745
CRACR2A_Q9BSW2_220_NELECALK (UniProt Q9BSW2) | -0.0374 | -0.174
CPNE3_O75131_15_VALNVSCANLLDK (UniProt O75131) | 0.132 | -0.00401
CTNND1_O60716_618_YQEAAPNVANNTGPHAASCFGAK (UniProt O60716) | -0.274 | -0.78
CRYZL1_O95825_302_YLCILK (UniProt O95825) | -0.195 | -0.442
CPSF2_Q9P2I0_765_IGLEGCLCQDFYR (UniProt Q9P2I0) | 0.113 | -0.169
CTPS1_P17812_491_CLEEQGLK (UniProt P17812) | 0.00947 | -0.332
CTNNAL1_Q9UBT7_104_EEINIACIEAK (UniProt Q9UBT7) | 0.116 | 0.384
CPSF4_O95639_82_KGDQCEFLHEYDMTK (UniProt O95639) | -0.24 | -0.283
CORO7_P57737_75_RVAHLGCHSDLVTDLDFSPFDDFLLATGSADR (UniProt P57737) | 0.465 | 0.469
CPSF2_Q9P2I0_187_EIHLNGCSLEMLSR (UniProt Q9P2I0) | 0.0742 | 0.366
CRIP1_P50238_52+56_PYCNHPCYAAMFGPK (UniProt P50238) | 0.0432 | -0.424
CORO1B_Q9BR76_195_LDSLHPDLIYNVSWNHNGSLFCSACK (UniProt Q9BR76) | 0.204 | -0.00526
CSK_P41240_411_MDAPDGCPPAVYEVMK (UniProt P41240) | -0.00657 | -0.0602
CPSF4_O95639_110_ECPFLHIDPESK (UniProt O95639) | -0.0283 | -0.19
CPNE3_O75131_54_NCLNPQFSK (UniProt O75131) | -0.151 | -0.406
CTBP2_P56545_318_DAPNLICTPHTAWYSEQASLEMR (UniProt P56545) | -0.154 | 0.00764
CSRP1_P21291_34+37_SCFLCMVCK (UniProt P21291) | -0.0813 | -0.307
CPSF1_Q10570_1102_IELQEWEHVTCMK (UniProt Q10570) | 0.0314 | -0.201
CORO2A_Q92828_25_ENCYDSVPITR (UniProt Q92828) | -0.212 | 0.057
